Measurements as given in the supplement of paper PMC8732350.
Where a name gives a salt, the structure may show the parent alone. ± gives the standard deviation of the averaged measurements. The list shows a part of the results. Repeats in this data set agree poorly, so a single value says little.

These compounds were tested on A549 (assay: surface PD-L1 immunofluorescence intensity relative to IFN-gamma-only control (ratio); higher = more PD-L1 expression). Conditions: 10 µM; exposure time 24 h; IFN-gamma 100 ng/mL.

Compound | surface PD-L1 immunofluorescence intensity
O=C(Nc1cccnc1)N1CCC(Cc2cccc(Oc3ccc(C(F)(F)F)cn3)c2)CC1 | 1.05
O=C(Nc1ccc([N+](=O)[O-])cc1Cl)c1cc(Cl)ccc1O [Niclosamide] | 0.9
CCOc1ccc(Cc2nccc3cc(OCC)c(OCC)cc23)cc1OCC [Ethaverine hydrochloride] | 0.984
Cc1cc(C)nc(NS(=O)(=O)c2ccc(NC(=S)NC(=O)COc3ccc(Br)cc3Cl)cc2)n1 | 1.02
N[C@@H](Cc1cc(I)c(O)c(I)c1)C(=O)O [3,5-Diiodo-L-tyrosine] | 1.07
CN1C(C(=O)Nc2ccccn2)=C(O)c2sc(Cl)cc2S1(=O)=O [Lornoxicam (Xefo)] | 1.11
CC12CC3CC(C)(C1)CC(N)(C3)C2 [Memantine Hydrochloride] | 1.01
CC12CC3CC(C)(C1)CC(N)(C3)C2 [Memantine hydrochloride] | 0.913
COc1ccc(-c2cc(=O)c3c(OC)c(OC)c(OC)c(OC)c3o2)cc1 [Tangeretin (Tangeritin)] | 1.09
CCO/C(O)=C1\C(C)=NC(c2ccccc2)=C(C(=O)OCc2ccc([N+](=O)[O-])cc2)C1C#Cc1ccccc1 (stereo unspecified) | 0.976
O=C(O)c1ccc(C=C2SC(=S)N(c3cccc(C(F)(F)F)c3)C2=O)cc1 | 0.912
CC/C=C\C/C=C\C/C=C\C/C=C\C/C=C\C/C=C\CCC(=O)O [Docosa-4Z,7Z,10Z,13Z,16Z,19Z-hexaenoic acid] | 0.979
CCC[C@@H]1C[C@@H](C(=O)N[C@@H]([C@H]2O[C@H](SC)[C@H](O)[C@@H](O)[C@H]2O)[C@@H](C)O)N(C)C1 [Lincomycin hydrochloride] | 1.02
CCC[C@@H]1C[C@@H](C(=O)N[C@@H]([C@H]2O[C@H](SC)[C@H](O)[C@@H](O)[C@H]2O)[C@@H](C)O)N(C)C1 [Lincomycin HCl (Lincocin)] | 0.874
CCN(CC)CCN[C@@H](C(=O)OCCC(C)C)c1ccccc1 [Camylofine chlorhydrate] | 0.925
CN1CCCN=C1/C=C/c1cccs1 [Pyrantel tartrate] | 0.898
CCOC(=O)N1c2ccc(C(F)(F)F)cc2[C@@H](N(Cc2cc(C(F)(F)F)cc(C(F)(F)F)c2)C(=O)OC)C[C@H]1CC | 0.982
COc1ccc(-c2cc(=O)c3c(OC)c(OC)c(OC)c(OC)c3o2)cc1OC [Nobiletin (Hexamethoxyflavone)] | 0.99
Cc1ccc(S(=O)(=O)OCC(=O)Nc2ccc(C(=O)O)c(O)c2)cc1 | 1.05
C[C@H]1C[C@H]2[C@@H]3CCC4=CC(=O)C=C[C@]4(C)[C@H]3C(=O)C[C@]2(C)[C@@]1(O)C(=O)CO [Betapar (Meprednisone)] | 1.04
CC1(C)O[C@@H]2C[C@H]3[C@@H]4C[C@H](F)C5=CC(=O)CC[C@]5(C)[C@H]4[C@@H](O)C[C@]3(C)[C@]2(C(=O)CO)O1 [Flurandrenolide] | 0.823
CCC(=O)OCC(=O)[C@@]1(OC(=O)CC)[C@@H](C)C[C@H]2[C@@H]3CCC4=CC(=O)C=C[C@]4(C)[C@@]3(F)[C@@H](O)C[C@@]21C [Betamethasone Dipropionate (Diprolene)] | 0.885
O=C(O)CCCN1CCC(O[C@@H](c2ccc(Cl)cc2)c2ccccn2)CC1 [Bepotastine Besilate] | 0.997
Nc1ncn(C2CC(O)C(CO)O2)c(=O)n1 (stereo unspecified) [5-Aza-2-deoxycytidine] | 1.09
NC(C(=O)O)c1ccc(C(=O)O)c(C(=O)O)c1 (stereo unspecified) | 1.03
NNC(=O)c1ccncc1 [Isoniazid] | 0.968

Looked up above:
O=C(Nc1cccnc1)N1CCC(Cc2cccc(Oc3ccc(C(F)(F)F)cn3)c2)CC1 – surface PD-L1 immunofluorescence intensity: 1.05
O=C(O)CCCN1CCC(O[C@@H](c2ccc(Cl)cc2)c2ccccn2)CC1 [Bepotastine Besilate] – surface PD-L1 immunofluorescence intensity: 0.997
CCN(CC)CCN[C@@H](C(=O)OCCC(C)C)c1ccccc1 [Camylofine chlorhydrate] – surface PD-L1 immunofluorescence intensity: 0.925
O=C(Nc1ccc([N+](=O)[O-])cc1Cl)c1cc(Cl)ccc1O [Niclosamide] – surface PD-L1 immunofluorescence intensity: 0.9
CCC[C@@H]1C[C@@H](C(=O)N[C@@H]([C@H]2O[C@H](SC)[C@H](O)[C@@H](O)[C@H]2O)[C@@H](C)O)N(C)C1 [Lincomycin hydrochloride] – surface PD-L1 immunofluorescence intensity: 1.02
Cc1cc(C)nc(NS(=O)(=O)c2ccc(NC(=S)NC(=O)COc3ccc(Br)cc3Cl)cc2)n1 – surface PD-L1 immunofluorescence intensity: 1.02

Additional records.

Compound | surface PD-L1 immunofluorescence intensity
CN(C(=O)CCCOc1ccc2[nH]c(=O)ccc2c1)C1CCCCC1 [Cilostamide] | 0.978
CN1CCN(C(=O)c2nc3ccc(Cl)cc3[nH]2)CC1 | 1.05
COc1ccc(Br)cc1S(=O)(=O)NC(=O)/C=C/c1ccccc1Cc1ccc2ccccc2c1 | 1.01
CCN1CCCC1CNC(=O)c1cc(S(N)(=O)=O)ccc1OC (stereo unspecified) [Sulpiride] | 0.905
COc1ccc(-c2ccc3cc(C(=O)O)ccc3c2)cc1C12CC3CC(CC(C3)C1)C2 [Adapalene] | 0.969
O=C(Cc1ccccc1)Nc1cccc(C(=O)Nc2ccccc2C(=O)O)c1 | 1.11
O=C(O)c1cccnc1 [Niacin] | 1.08
CCCCc1oc2ccccc2c1C(=O)c1cc(I)c(OCCN(CC)CC)c(I)c1 [Amiodarone] | 0.883
CCCCc1oc2ccccc2c1C(=O)c1cc(I)c(OCCN(CC)CC)c(I)c1 [Amiodarone hydrochloride] | 0.952
O=c1[nH]c(=O)n([C@H]2C[C@H](O)[C@@H](CO)O2)cc1I [Idoxuridine] | 1.21
Cc1cccc(N(C)C(=S)Oc2ccc3ccccc3c2)c1 [Tolnaftate] | 0.908
CN(Cc1cc(Br)cc(Br)c1N)C1CCCCC1 [Bromhexine hydrochloride] | 1.01
C[C@H](CS)C(=O)N1CCC[C@H]1C(=O)O [Captopril] | 0.933 ± 0.09
C[C@H](CS)C(=O)N1CCC[C@H]1C(=O)O [Captopril (Capoten)] | 1.08
CC1(C)O[C@@H]2C[C@H]3[C@@H]4C[C@H](F)C5=CC(=O)C=C[C@]5(C)[C@H]4[C@@H](O)C[C@]3(C)[C@]2(C(=O)CO)O1 [Flunisolide] | 0.801
Nc1nc(N)c2nc(-c3cccc(O)c3)c(-c3cccc(O)c3)nc2n1 | 0.991
NCCc1ccc(O)c(O)c1 [Dopamine hydrochloride] | 0.893
O=C(/C=C/c1cccnc1)NCCCCC1CCN(C(=O)c2ccccc2)CC1 | 0.935
CCCNC(=O)N1N=C(c2ccc(N)cc2)c2cc3c(cc2C1C)OCO3 (stereo unspecified) | 0.948
Cc1c(Nc2ncccc2C(=O)O)cccc1C(F)(F)F [Flunixin meglumine] | 1.06
CC[C@H](c1ccc(O)cc1)[C@@H](CC)c1ccc(O)cc1 [Hexestrol] | 1.05
CC[C@H](c1ccc(O)cc1)[C@@H](CC)c1ccc(O)cc1 [Hexestrol (Bibenzyl)] | 1.03
N#CC1(c2ccc(NC(=O)c3cccnc3NCc3ccncc3)cc2)CCCC1 [Apatinib (YN968D1)] | 1.17
CN1CCN(C(=O)c2cc3cc(Cl)ccc3[nH]2)CC1 | 0.922
CCCN(CC1CC1)c1nc(C)nc(Nc2c(Cl)cc(Cl)cc2Cl)c1Cl | 0.993
Cc1ccc2c(c1)c1c(n2CCc2ccc(C)nc2)CCN(C)C1 [Dimebon (Latrepirdine)] | 0.965

Compound | surface PD-L1 immunofluorescence intensity
COc1ccc(CNc2nc(N3CCC[C@H]3CO)ncc2C(=O)NCc2ncccn2)cc1Cl [Avanafil] | 0.906
O=C1NC(c2cccc([N+](=O)[O-])c2)=CCN1c1ccccc1O [Icilin] | 0.932
CC(=O)OCC(=O)[C@@]1(O)CC[C@H]2[C@@H]3CCC4=CC(=O)C=C[C@]4(C)[C@H]3[C@@H](O)C[C@@]21C [Prednisolone acetate (Omnipred)] | 0.723
CCCCOc1ccc(C(=O)CCN2CCCCC2)cc1 [Dyclonine hydrochloride] | 0.913
C=C1C(=O)O[C@H]2[C@H]1CC/C(C)=C/CC[C@@]1(C)O[C@@H]21 [Parthenolide] | 1.02
COc1ccc(CCC(=O)Nc2nc3ccc(Cl)cc3s2)cc1OC | 0.967
CN1[C@@H]2CC[C@H]1C[C@@H](OC(=O)C(O)c1ccccc1)C2 (mixture of isomers) [Homatropine hydrobromide (R,S)] | 0.916
O=[N+]([O-])c1cn2c(n1)OC[C@@H](OCc1ccc(OC(F)(F)F)cc1)C2 | 1.02
Cn1nnc2c(C(N)=O)ncn2c1=O [Methazolastone] | 0.952
Cn1nnc2c(C(N)=O)ncn2c1=O [Temozolomide] | 1.01 ± 0.054
C[C@]12CC[C@H](O)CC1=CC[C@@H]1[C@@H]2CC[C@]2(C)C(c3cccnc3)=CC[C@@H]12 [Abiraterone (CB-7598)] | 1.13
COc1ccc(CCC(=O)c2c(O)cc(O[C@@H]3O[C@H](CO)[C@@H](O)[C@H](O)[C@H]3O[C@@H]3O[C@@H](C)[C@H](O)[C@@H](O)[C@H]3O)cc2O)cc1O [Neohesperidin dihydrochalcone (Nhdc)] | 1.07
CC(C)(C)CC(C)(C)c1ccc(OCCOCC[N+](C)(C)Cc2ccccc2)cc1 [Benzethonium chloride] | 1.22
CC(C)(C)NC(=O)[C@H]1CC[C@H]2[C@@H]3CC[C@H]4NC(=O)C=C[C@]4(C)[C@H]3CC[C@]12C [Finasteride] | 1.05 ± 0.051
C=CC[N+]1([C@H]2C[C@H]3[C@@H]4CC[C@H]5C[C@H](O)[C@@H](N6CCOCC6)C[C@]5(C)[C@H]4CC[C@]3(C)[C@H]2OC(C)=O)CCCC1 [Rocuronium bromide] | 1.01
Nc1nc(N)c2nc(-c3ccccc3)c(N)nc2n1 [Triamterene] | 0.812
C=C1CC[C@H](O)C/C1=C/C=C1\CCC[C@]2(C)[C@@H]([C@H](C)/C=C/[C@H](C)C(C)C)CC[C@@H]12 [Vitamin D2 (Ergocalciferol)] | 1.03
O=C(O)c1cc(O)ccc1O [Gentisic acid] | 0.91
C[N+](C)(C)CC(O)CC(=O)[O-] (racemic) [DL-Carnitine HCl] | 0.931
CC(C)C(=O)c1c(C(C)C)nn2ccccc12 [Ibudilast] | 0.963 ± 0.051
C[N+](C)(C)C[C@H](O)CC(=O)[O-] [L-carnitine (Levocarnitine)] | 1.13
CC(C)NCC(O)COc1cccc2[nH]ccc12 (stereo unspecified) [Pindolol] | 0.954
OC(CCN1CCCC1)(c1ccccc1)C1CCCCC1 (stereo unspecified) [Procyclidine hydrochloride] | 0.922
COP(=O)(OC)OC(c1ccc(Cl)cc1)P(=O)(OC)OC (stereo unspecified) | 0.99
